{"source": "patent US12539323B2", "about": "“Anti-psychotic composition and treatment methods” (priority 2017, dated 2026)", "origin": "cited, not measured here", "test_system": "symptoms of schizophrenia", "settings": "pooled meta-analysis of celecoxib and aspirin, eight studies", "note": "For at least one compound, name, drawing or mass did not settle the structure."}
{"smiles": "Cc1ccc(-c2cc(C(F)(F)F)nn2-c2ccc(S(N)(=O)=O)cc2)cc1", "note": "[celecoxib]", "values": [{"measurement": "Effect on negative symptoms of schizophrenia", "result": "no benefit"}, {"measurement": "Hedges' g, positive symptoms", "result": "−0.189"}, {"measurement": "Hedges' g, total symptoms", "setting": "trend level", "result": "−0.236"}]}
